# Test results as given in PubChem BioAssay AID624297 (National Center for Advancing Translational Sciences (NCATS), 2012).
# “And” between values parts separate entries of the source, which are not always exact repeats. Identical values can stand only once. About 6,200 (1.8%) of roughly 340,000 compounds were called active. Inconclusive results, whose numbers are uncertain, are shown with a selection of clear calls. The call rests on the fitted dose curve; in most records, active means well fitted activation curve with a large enough effect; inconclusive means small, poorly fitted or top-dose-only effect; inactive means no such curve, though single readings can be large or run the other way. Where the call is inconclusive, the potency comes from a doubtful curve fit.
# Test: A quantitative high throughput screen for small molecules that induce DNA re-replication in SW480 colon adenocarcinoma cells. Further: nearly all actives have a fitted effect of over 55% in size. On re-replication activation: % of control where 0% means no effect.
# Conditions: Hoechst DNA content imaging, 48 h; re-replication activation: at 46.1 µM (top of the series) unless noted
# In short: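 Compounds, transferred as 23 nL by pin tool, were incubated with cells for 48 hr; DNA content per nucleus was then quantified by Hoechst staining and fluorescence plate imaging.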
# Potency means the concentration at half of the fitted maximal effect.
Structure (SMILES),Potency,re-replication activation
O=C(NCCOc1ccc(F)cc1)C1CCC(=O)N(CC2CCCCC2)C1 (stereo not given),inactive,–
CCOC(=O)/C(=N/Nc1ccccc1)c1csc(Nc2ccccc2)n1,"inconclusive: 23.1 µM [activator, single point]",–
Cn1nnnc1SCCNCc1ccccc1OCc1ccc(Cl)cc1,inactive,–
O=C(CN1CCN(c2ccccc2)CC1)Nc1ccc2c(c1)CCC2,"inconclusive: 14.6 µM [activator, partial curve, poor fit]",–
COc1cccc(-c2sc3ccc(OC)cc3c2-c2ccc(OCCN3CCCC3)cc2)c1,"inconclusive: 20.6 µM [activator, single point]",–
O=C(c1ccccc1)c1cnc(-c2ccccc2)s1,"inconclusive: 4.11 µM [activator, partial curve, poor fit]",–
CC(C)C(NC(=O)c1ccc(F)cc1)C(=O)N1CCC1 (stereo not given),"inconclusive: 29.1 µM [activator, partial curve, poor fit]",–
CC[n+]1c(/C=C2\C=C(C)CC(C)(C)C2)sc2ccccc21,"inconclusive: 29.1 µM [activator, single point]",–
CC1=C(C(=O)Nc2ccccc2C(=O)NC2CCCCC2)SCCO1,"inconclusive: 20.6 µM [activator, single point]",–
COc1cc(-c2c(C#N)c(N)nc3c2CCCC3)ccc1O,inactive,–
COc1ccc(S(=O)(=O)N(C)c2ccc(C(=O)NCc3ccncc3)cc2)cc1,–,inconclusive: 83% [activator]
Cc1cc(CC(C)C)n(-c2nc3ccccc3c(=O)n2OCc2ccccc2)n1,inactive,–
COc1ccc(-c2csc(N3CCN(C(=O)c4ccco4)CC3)n2)cc1,inactive,–
Cc1cc(N2CCN(C)CC2)nc2ccc(NC(=S)NCCN3CCc4ccccc4C3)cc12,"inconclusive: 18.4 µM [activator, single point]",–
COc1ccc(N2C(=NC(=O)C3CC3)SC3CS(=O)(=O)CC32)cc1Cl (stereo not given),inactive,–
Cc1nn(-c2ccccc2)c(C)c1NC(=O)COC(=O)CCc1ccccc1,"inconclusive: 0.82 µM [activator, full curve, poor fit]",–
CC(=O)N1CCC(N(CCN2CCOCC2)C(=S)Nc2ccc(C)cc2)CC1,"inconclusive: 6.51 µM [activator, partial curve, poor fit]",–
O=C(NC(c1ccc(Cl)cc1)c1cc(Cl)c2cccnc2c1O)c1cccnc1 (stereo not given),active: 2.59 µM,–
CC(C(=O)NC1CCCC1)N(C(=O)c1ccc(-c2ccccc2)[nH]1)c1ccccc1F (stereo not given),"inconclusive: 18.4 µM [activator, single point]",–
CCOC(=O)C(Cc1cc(N)c(Oc2ccc(OC)cc2)c(N)c1)NC(C)=O (stereo not given),inactive,–
O=C(COc1cc(Cl)ccc1Cl)N1CCNC1=O,inactive,–
CCN(CC)c1ccc(N)cc1S(=O)(=O)Nc1ccccc1OC,"inconclusive: 29.1 µM [activator, single point]",–
Cc1ccccc1-n1ncc2c(SCC(=O)NC3CCCC3)ncnc21,inactive,–

Structure (SMILES),Potency,re-replication activation
COC(=O)c1sc2ccccc2c1NC(=O)c1ccc(S(=O)(=O)N2CCCC(C)C2)cc1 (stereo not given),inactive,–
CCOc1ccc2[nH]c3c(N4CCN(c5ccccn5)CC4)ncnc3c2c1,"inconclusive: 35.5 µM [activator, single point]",–
NCCCNc1ccc([N+](=O)[O-])cc1C(F)(F)F,inactive,–
CCCc1cc(C(=O)N2CCN(S(=O)(=O)c3ccc(OC)c(OC)c3)CC2)cs1,inactive,–
CCCC(C(=O)Nc1ccc(S(=O)(=O)N2CCCC2)cc1)c1ccccc1 (stereo not given),"inconclusive: 20.6 µM [activator, partial curve, poor fit]",–
COc1ccccc1NC(=O)CC1S/C(=N/N=C(\C)C2CCCCC2)NC1=O (stereo not given),"inconclusive: 2.91 µM [activator, single point]",–
COc1ccc(-c2csc(NC(CO)c3nc4ccccc4n3Cc3ccc(C)cc3)n2)cc1 (stereo not given),"inconclusive: 16.4 µM [activator, single point]",–
OCC1(Cc2ccccc2)CCN(CCCC2CCCC2)CC1,"inconclusive: 29.1 µM [activator, single point]",–
COC(=O)c1sccc1NC(=O)CC1C(=O)NCCN1C(=O)Nc1ccc(C(F)(F)F)cc1 (stereo not given),"inconclusive: 18.4 µM [activator, single point]",–
COc1ccc(-c2nnc(SCC(=O)Nc3ccc(C)cc3)n2C)cc1,inactive,–
CCOC(=O)C(Cc1ccc(O)cc1)NC(=O)CNC(=O)C(CC(C)C)NC(=O)OC(C)(C)C (stereo not given),inactive,–
Cc1ccc(NC(=O)C(=O)c2ccc(C)cc2)cc1,inactive,–
CCOc1ccc(NS(=O)(=O)c2ccc(C(=O)N3CCCC(C)C3)cc2)cc1 (stereo not given),"inconclusive: 29.1 µM [activator, partial curve, poor fit]",–
O=C(Cn1ccccc1=S)c1ccc(Cl)c(Cl)c1,"inconclusive: 20.6 µM [activator, partial curve, poor fit]",–
Cc1nc(NC(C)c2ccccc2)sc1C(=O)Nc1ccccc1 (stereo not given),–,inconclusive: 26.7% [activator]
CCN1CCN(CCOc2cccc(Cl)c2Cl)CC1,"inconclusive: 29.1 µM [activator, single point]",–
COc1ccc(NC(=O)COC(=O)C2CC(=O)N(CCc3ccc(OC)c(OC)c3)C2)cc1Cl (stereo not given),"inconclusive: 29.1 µM [activator, single point]",–
CC(C)Oc1ccc(C(=O)CCN2CCOCC2)cc1,"inconclusive: 29.1 µM [activator, single point]",–
CCOc1ccc2ccccc2c1C(=O)N[C@@H]1C(=O)N2[C@@H]1SC(C)(C)[C@@H]2C(=O)O,"inactive and inconclusive: 20 µM [activator, single point]",–
Nc1nc(Br)c2c(F)cccc2c1-c1ccc(F)cc1,"inconclusive: 29.1 µM [activator, partial curve, poor fit]",–
C/C=C/C=C/C(=O)O,"inconclusive: 0.184 µM [activator, single point]",–
CCCCN(CCCC)CCNC(=O)CN1C(=O)CSc2ccc(S(=O)(=O)N3CCCCC3)cc21,"inconclusive: 20.6 µM [activator, partial curve, poor fit]",–
